Results are given in words; binding and its absence hold for the method and conditions named. In cells and extracts the contact can be indirect. Some binding calls cover weakened binding; strength is not graded here.
How the values were obtained:
[1] = biological target: His-FLAG-huPS1 with a 15 amino acid deletion (PS1 del265-279) (human) (UniProt P49768); test: FRET or BRET; antibody-based FLIM on fixed, immunostained PC12 cells (anti-FLAG and anti-Syt1, AF488 donor and Cy3 acceptor secondary antibodies) after 15 min 50 mM KCl
[2] = biological target: His-FLAG-huPS1 with a 15 amino acid deletion (PS1 del265-279) (human) (UniProt P49768); test: pull-down; IMAC: His-PS1 captured on MagneHis Ni-Particles from 1% CHAPS lysates of transfected PC12 cells stimulated 15 min with 50 mM KCl; 20 mM imidazole; western blot for Syt1

- binding [1]: binds
- binding [2]: binds
Substance: Synaptotagmin 1, endogenous in PC12 cells (from UniProt P21707 1-421)
